Reference: PubChem BioAssay AID1259405 (NCATS, 2018)
Shown is an unselected part of about 50,000 reagents tested. Of all reagents, about 4,000 (8%) were called active. 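Mouse siRNA library applied to hamster cells; one well for each siRNA.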 The numbers tell different reagents against one gene apart.

Assay: 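Knock-downs that lift recombinant protein yield in hamster ovary cells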 (primary screen)
Cells: Chinese hamster CHO-K1 ovary cells with stable secreted eGFP expression
Reagent: single siRNA against mouse genes, 0.8 pmol siRNA per well (2 µl of 400 nM stock)
Time to read-out: 3 days
Measured: 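Per-well intracellular GFP measured by laser scanning cytometry, plus viability from ATP luminescence, each relative to plate median of non-targeting control wells, in %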
Scale: GFP, % of control: higher = more GFP per well, higher productivity; viability (ATP), % of control: higher = more viable cells (more ATP)
Active means: 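Called active when intracellular GFP, relative to negative control, is at or above 120%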

no.	Target gene	siRNA no.	GFP, % of control	viability (ATP), % of control	activity call
1	Adamdec1 (ADAM-like, decysin 1)	1	76.3	72.9	inactive
2	Adamdec1 (ADAM-like, decysin 1)	2	49.3	36.6	inactive
3	Adamdec1 (ADAM-like, decysin 1)	3	67.8	90.2	inactive
4	Ammecr1 (AMMECR nuclear protein 1)	1	75.9	51.9	inactive
5	Ammecr1 (AMMECR nuclear protein 1)	2	50.3	51.4	inactive
6	Ammecr1 (AMMECR nuclear protein 1)	3	92.3	91.9	inactive
7	Nkapl (NFKB activating protein-like)	1	75.1	48.5	inactive
8	Nkapl (NFKB activating protein-like)	2	86.3	58.3	inactive
9	Nkapl (NFKB activating protein-like)	3	83.9	71	inactive
10	P2ry6 (pyrimidinergic receptor P2Y, G-protein coupled, 6)	1	72.5	61.5	inactive
11	P2ry6 (pyrimidinergic receptor P2Y, G-protein coupled, 6)	2	65.2	68.4	inactive
12	P2ry6 (pyrimidinergic receptor P2Y, G-protein coupled, 6)	3	112	80.4	inactive
13	Serpina7	1	71.7	78.2	inactive
14	Serpina7	2	74.9	65.8	inactive
15	Serpina7	3	81.1	81.1	inactive
16	Magi3	1	93.9	90.2	inactive
17	Magi3	2	80.1	81.8	inactive
18	Magi3	3	80.8	84.5	inactive
19	Dgke (diacylglycerol kinase, epsilon)	1	60	65.1	inactive
20	Maco1 (macoilin 1)	1	71.9	85.5	inactive
21	Maco1 (macoilin 1)	2	77.2	64.4	inactive
22	Maco1 (macoilin 1)	3	90.7	83.2	inactive
23	Sntn (sentan, cilia apical structure protein)	1	162	99.1	active
24	Sntn (sentan, cilia apical structure protein)	2	76.9	70.5	inactive
25	Sntn (sentan, cilia apical structure protein)	3	101	89.8	inactive
26	Trim67 (tripartite motif-containing 67)	1	46.6	56.6	inactive
27	Trim67 (tripartite motif-containing 67)	2	74.7	113	inactive
28	Trim67 (tripartite motif-containing 67)	3	90.1	32.5	inactive
29	Hif1an (hypoxia-inducible factor 1, alpha subunit inhibitor)	1	89.6	118	inactive
30	Hif1an (hypoxia-inducible factor 1, alpha subunit inhibitor)	2	65.4	70	inactive
31	Hif1an (hypoxia-inducible factor 1, alpha subunit inhibitor)	3	77.5	79.7	inactive
32	Spast (spastin)	1	64.1	72.9	inactive
33	Spast (spastin)	2	64.3	76.8	inactive
34	Pcdh12 (protocadherin 12)	1	86.8	82.1	inactive
35	Pcdh12 (protocadherin 12)	2	59.4	61.4	inactive
36	Gnb1 (guanine nucleotide binding protein (G protein), beta 1)	1	81.1	90	inactive
37	Gnb1 (guanine nucleotide binding protein (G protein), beta 1)	2	75.9	65	inactive
38	Gnb1 (guanine nucleotide binding protein (G protein), beta 1)	3	106	61.6	inactive
39	9430025C20Rik (RIKEN cDNA 9430025C20 gene)	1	47.4	46.1	inactive
40	9430025C20Rik (RIKEN cDNA 9430025C20 gene)	2	60.6	74.3	inactive
41	9430025C20Rik (RIKEN cDNA 9430025C20 gene)	3	43.3	103	inactive
42	Eef2k (eukaryotic elongation factor-2 kinase)	1	93.4	71.8	inactive
43	Supt20 (SPT20 SAGA complex component)	1	119	97.8	inactive
44	Supt20 (SPT20 SAGA complex component)	2	79.7	83.4	inactive
45	Supt20 (SPT20 SAGA complex component)	3	113	75.9	inactive
46	Sele (selectin, endothelial cell)	1	37	36.6	inactive
47	Sele (selectin, endothelial cell)	2	88.5	71.3	inactive
48	Or13c7c (olfactory receptor family 13 subfamily C member 7C)	1	44.5	44	inactive
49	Or13c7c (olfactory receptor family 13 subfamily C member 7C)	2	77.3	98.6	inactive
50	Or13c7c (olfactory receptor family 13 subfamily C member 7C)	3	60.3	64.4	inactive
51	Mrpl14 (mitochondrial ribosomal protein L14)	1	91.3	64.3	inactive
52	Mrpl14 (mitochondrial ribosomal protein L14)	2	97.4	87.9	inactive
53	Mrpl14 (mitochondrial ribosomal protein L14)	3	119	60.6	inactive
54	Gsx2 (GS homeobox 2)	1	74.9	81.9	inactive
55	Gsx2 (GS homeobox 2)	2	76.7	54.2	inactive
56	Gsx2 (GS homeobox 2)	3	89	84.1	inactive
57	Spata2 (spermatogenesis associated 2)	1	67.9	71.2	inactive
58	Spata2 (spermatogenesis associated 2)	2	57	42.2	inactive
59	Spata2 (spermatogenesis associated 2)	3	76.3	74.7	inactive

Records listed above with an active call:
Target gene	siRNA no.	GFP, % of control	viability (ATP), % of control	activity call
Sntn (sentan, cilia apical structure protein)	1	162	99.1	active
